Experimental data reported in the supplement of paper PMC10849652.
This is one part of the list.

By UniProt entry, the sequences of proteins in these tests, tags left out. Where a name states a change or a piece, a line headed by the entry shows the natural chain unless it says otherwise.
UniProt P43307: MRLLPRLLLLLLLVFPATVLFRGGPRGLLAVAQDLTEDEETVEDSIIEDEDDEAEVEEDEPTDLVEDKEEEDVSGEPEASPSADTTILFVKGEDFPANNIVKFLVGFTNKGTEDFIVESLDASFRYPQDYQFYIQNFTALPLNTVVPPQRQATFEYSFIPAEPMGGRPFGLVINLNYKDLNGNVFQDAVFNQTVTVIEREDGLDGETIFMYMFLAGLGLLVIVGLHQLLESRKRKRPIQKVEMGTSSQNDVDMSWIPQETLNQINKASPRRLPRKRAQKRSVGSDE
UniProt Q9NSC7: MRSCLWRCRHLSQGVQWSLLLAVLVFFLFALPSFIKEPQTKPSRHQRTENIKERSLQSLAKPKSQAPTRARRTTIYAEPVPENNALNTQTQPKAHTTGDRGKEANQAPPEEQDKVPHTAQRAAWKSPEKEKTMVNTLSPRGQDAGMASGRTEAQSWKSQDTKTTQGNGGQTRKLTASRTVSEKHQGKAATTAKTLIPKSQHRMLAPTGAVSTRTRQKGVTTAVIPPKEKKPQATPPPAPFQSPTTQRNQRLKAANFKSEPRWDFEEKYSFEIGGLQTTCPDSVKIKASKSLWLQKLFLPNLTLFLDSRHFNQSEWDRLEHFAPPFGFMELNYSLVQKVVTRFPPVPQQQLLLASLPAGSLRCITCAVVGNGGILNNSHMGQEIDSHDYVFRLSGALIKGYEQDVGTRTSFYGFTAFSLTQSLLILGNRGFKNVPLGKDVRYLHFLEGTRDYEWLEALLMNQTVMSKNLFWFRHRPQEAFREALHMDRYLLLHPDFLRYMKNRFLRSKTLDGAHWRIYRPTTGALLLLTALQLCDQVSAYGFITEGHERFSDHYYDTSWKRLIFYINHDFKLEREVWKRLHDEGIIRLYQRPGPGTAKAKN
UniProt P42229: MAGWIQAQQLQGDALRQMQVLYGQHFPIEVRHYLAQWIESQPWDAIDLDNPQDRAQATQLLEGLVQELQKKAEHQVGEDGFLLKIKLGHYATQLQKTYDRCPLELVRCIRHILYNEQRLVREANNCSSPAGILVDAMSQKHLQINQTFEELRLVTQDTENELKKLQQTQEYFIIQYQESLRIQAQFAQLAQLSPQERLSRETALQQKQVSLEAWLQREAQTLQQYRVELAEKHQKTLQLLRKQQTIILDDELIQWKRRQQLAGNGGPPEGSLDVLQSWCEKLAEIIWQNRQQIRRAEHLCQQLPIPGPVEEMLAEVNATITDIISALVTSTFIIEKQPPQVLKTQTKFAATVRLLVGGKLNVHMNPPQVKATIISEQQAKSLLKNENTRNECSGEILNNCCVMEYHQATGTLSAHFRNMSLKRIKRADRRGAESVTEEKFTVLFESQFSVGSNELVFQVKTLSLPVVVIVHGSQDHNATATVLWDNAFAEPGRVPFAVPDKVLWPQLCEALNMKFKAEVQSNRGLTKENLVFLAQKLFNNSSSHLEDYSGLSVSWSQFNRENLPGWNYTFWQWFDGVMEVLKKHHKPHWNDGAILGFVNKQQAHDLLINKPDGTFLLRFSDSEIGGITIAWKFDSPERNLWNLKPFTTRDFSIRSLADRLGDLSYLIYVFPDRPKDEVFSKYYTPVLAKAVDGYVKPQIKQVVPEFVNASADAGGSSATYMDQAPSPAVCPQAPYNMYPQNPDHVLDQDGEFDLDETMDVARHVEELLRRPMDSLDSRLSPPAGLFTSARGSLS
UniProt Q8NBT2: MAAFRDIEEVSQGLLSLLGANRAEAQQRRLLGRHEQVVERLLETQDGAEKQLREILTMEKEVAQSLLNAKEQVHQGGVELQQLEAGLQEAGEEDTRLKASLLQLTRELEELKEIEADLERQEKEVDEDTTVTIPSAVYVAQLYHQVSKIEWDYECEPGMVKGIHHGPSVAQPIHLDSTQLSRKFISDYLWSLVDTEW
UniProt O95793: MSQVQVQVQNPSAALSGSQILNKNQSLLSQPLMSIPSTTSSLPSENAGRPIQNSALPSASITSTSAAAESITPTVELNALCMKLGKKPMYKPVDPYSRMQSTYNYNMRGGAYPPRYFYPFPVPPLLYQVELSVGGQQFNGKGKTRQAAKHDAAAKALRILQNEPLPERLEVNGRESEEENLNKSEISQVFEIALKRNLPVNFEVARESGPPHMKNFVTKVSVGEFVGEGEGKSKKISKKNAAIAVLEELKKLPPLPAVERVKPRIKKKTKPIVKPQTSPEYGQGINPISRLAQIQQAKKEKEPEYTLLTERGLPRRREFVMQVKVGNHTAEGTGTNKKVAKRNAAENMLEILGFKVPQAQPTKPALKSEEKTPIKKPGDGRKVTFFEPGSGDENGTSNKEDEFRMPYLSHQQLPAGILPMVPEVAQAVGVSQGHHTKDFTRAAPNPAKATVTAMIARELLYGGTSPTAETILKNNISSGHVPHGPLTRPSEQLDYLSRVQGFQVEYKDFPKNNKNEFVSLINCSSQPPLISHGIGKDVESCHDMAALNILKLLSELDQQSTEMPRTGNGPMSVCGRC
UniProt Q8IZP2: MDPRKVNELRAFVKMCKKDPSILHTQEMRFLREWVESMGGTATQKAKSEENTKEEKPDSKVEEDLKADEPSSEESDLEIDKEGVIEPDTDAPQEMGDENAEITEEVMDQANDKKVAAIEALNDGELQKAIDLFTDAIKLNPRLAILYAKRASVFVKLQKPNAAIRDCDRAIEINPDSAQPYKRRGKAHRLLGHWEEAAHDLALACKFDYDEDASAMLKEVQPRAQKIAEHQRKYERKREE
UniProt P35325: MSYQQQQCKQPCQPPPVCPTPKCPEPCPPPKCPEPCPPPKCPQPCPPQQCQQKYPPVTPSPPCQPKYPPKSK
UniProt Q9C0H9: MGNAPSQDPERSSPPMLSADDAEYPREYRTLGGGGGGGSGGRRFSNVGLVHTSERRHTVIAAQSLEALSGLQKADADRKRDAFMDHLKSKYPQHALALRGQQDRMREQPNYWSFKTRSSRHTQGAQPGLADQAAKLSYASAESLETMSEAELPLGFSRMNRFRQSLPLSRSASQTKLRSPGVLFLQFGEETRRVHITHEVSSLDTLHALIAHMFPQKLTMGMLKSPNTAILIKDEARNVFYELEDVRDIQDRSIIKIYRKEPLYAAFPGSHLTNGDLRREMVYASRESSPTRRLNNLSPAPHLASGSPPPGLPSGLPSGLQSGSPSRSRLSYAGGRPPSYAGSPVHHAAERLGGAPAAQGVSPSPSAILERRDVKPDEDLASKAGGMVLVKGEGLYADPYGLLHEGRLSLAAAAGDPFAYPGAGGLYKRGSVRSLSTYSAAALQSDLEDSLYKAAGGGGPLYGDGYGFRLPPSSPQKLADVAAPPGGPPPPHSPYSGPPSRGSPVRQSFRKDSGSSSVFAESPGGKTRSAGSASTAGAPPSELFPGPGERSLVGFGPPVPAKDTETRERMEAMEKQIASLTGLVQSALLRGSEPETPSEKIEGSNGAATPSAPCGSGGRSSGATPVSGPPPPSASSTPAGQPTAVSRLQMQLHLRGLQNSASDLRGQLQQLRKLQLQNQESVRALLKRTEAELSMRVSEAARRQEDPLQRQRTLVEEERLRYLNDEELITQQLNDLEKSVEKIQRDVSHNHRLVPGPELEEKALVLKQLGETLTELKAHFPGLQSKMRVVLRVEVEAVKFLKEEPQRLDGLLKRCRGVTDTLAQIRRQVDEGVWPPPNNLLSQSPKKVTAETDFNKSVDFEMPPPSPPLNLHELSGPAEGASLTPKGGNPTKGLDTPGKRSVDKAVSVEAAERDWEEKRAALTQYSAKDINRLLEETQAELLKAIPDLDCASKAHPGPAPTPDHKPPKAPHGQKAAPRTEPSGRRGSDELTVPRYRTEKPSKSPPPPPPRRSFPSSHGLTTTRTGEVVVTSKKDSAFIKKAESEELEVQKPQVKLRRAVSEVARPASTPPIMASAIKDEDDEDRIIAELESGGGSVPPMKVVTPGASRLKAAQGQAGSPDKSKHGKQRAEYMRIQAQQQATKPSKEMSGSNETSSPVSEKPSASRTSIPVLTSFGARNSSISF
UniProt Q8TCT8: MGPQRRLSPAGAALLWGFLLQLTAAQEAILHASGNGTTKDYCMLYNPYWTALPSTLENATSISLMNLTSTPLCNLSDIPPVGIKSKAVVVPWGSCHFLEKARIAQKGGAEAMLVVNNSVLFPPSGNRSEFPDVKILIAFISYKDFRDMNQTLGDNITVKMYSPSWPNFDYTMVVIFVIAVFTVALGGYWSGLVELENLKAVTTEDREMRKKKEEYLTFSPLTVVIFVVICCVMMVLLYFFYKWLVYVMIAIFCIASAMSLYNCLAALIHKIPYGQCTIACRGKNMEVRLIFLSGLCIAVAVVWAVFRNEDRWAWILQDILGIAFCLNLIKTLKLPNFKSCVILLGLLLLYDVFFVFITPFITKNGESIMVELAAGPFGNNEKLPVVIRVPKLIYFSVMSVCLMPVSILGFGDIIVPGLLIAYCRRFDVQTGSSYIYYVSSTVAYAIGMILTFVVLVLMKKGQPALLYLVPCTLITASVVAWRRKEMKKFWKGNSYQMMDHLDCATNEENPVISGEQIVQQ
UniProt P36956: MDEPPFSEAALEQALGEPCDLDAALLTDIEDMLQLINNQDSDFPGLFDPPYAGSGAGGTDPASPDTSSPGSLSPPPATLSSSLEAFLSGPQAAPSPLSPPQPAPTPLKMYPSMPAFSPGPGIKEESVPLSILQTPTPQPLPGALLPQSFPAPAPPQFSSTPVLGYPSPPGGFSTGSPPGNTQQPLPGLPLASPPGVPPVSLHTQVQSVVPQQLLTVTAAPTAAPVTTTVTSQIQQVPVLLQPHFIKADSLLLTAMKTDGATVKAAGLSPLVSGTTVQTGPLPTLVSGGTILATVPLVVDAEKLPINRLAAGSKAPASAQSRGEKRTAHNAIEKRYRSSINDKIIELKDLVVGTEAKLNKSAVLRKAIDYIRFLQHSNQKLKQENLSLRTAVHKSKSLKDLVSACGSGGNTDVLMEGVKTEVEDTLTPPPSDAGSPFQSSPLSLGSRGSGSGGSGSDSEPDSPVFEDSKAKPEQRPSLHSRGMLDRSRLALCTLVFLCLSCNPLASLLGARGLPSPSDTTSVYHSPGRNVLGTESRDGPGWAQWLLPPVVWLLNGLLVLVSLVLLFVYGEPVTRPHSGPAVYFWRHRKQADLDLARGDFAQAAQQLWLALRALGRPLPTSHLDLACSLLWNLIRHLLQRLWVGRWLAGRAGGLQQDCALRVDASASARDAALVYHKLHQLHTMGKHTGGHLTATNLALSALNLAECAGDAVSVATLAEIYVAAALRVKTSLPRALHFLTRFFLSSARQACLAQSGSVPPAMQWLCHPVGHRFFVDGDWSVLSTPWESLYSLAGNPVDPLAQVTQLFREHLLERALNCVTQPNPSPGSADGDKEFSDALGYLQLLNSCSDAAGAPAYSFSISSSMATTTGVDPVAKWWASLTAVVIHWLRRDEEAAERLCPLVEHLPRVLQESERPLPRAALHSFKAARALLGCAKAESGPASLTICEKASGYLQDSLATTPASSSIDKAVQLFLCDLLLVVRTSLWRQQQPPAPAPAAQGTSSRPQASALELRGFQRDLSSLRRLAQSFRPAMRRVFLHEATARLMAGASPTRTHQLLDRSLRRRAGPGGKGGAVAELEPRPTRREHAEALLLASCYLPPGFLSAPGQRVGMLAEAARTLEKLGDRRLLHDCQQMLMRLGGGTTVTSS
UniProt Q7Z698: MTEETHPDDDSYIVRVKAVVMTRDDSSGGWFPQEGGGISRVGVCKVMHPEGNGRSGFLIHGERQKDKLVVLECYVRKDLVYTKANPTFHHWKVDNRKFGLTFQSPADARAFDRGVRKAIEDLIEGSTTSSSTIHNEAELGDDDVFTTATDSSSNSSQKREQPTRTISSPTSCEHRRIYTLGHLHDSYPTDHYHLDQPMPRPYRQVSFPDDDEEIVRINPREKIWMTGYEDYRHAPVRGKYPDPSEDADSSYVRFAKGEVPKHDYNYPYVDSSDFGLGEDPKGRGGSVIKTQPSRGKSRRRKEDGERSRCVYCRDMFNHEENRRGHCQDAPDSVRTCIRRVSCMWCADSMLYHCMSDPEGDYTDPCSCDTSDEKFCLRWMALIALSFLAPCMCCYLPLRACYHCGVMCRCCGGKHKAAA
UniProt Q13103: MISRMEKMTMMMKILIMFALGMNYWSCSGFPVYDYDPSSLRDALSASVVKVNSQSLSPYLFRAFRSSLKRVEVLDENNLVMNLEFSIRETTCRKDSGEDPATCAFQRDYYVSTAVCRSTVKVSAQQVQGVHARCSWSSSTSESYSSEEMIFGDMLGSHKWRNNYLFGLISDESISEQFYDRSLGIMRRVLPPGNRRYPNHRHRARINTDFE
UniProt Q16842: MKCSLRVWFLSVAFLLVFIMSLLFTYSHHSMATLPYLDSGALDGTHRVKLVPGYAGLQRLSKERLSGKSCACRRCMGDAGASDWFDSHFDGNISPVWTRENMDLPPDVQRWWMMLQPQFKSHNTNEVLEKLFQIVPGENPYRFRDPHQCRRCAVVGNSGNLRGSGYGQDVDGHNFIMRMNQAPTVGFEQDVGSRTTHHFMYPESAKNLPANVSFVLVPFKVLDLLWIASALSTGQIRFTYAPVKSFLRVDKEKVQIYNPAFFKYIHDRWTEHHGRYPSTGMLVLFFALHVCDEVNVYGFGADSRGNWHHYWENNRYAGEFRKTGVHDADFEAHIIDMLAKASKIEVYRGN

Key:
Experiment in all cases: log2 fold change, soluble protein after heating vs DMSO (PISA); higher = thermal stabilisation; K562 lysate, 10 uM; active = over 0.2 and 3.5 SD of the protein, either way, in both replicates (recomputed)
[1] = compound: Cc1cn(-c2cc(NC(=O)c3ccc(C)c(Nc4nccc(-c5cccnc5)n4)c3)cc(C(F)(F)F)c2)cn1 [nilotinib]
Procedure, shortened: (§1)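 Following dounce homogenisation of K562 pellets in PBS pH 7.4 with 1 mM MgCl2, crude extract at 1 mg/mL protein was incubated for 30 min with 10 μM compound. Aliquots were then heated for 3 min over 48°C-58°C and pooled, NP-40 was added to 0.5% at 4°C, and soluble protein was recovered as the supernatant at 21,000xg for 90 min. Channel-sum-equalised TMTpro 16plex LC-MS/MS quantified this protein. Each value, from duplicates, is a log-two fold change in thermal stability relative to solvent controls.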

[2] = compound: Cc1nc(Nc2n[nH]c3c2CN(C(=O)N[C@H](CN(C)C)c2ccccc2)C3(C)C)c2sccc2n1
Procedure, shortened: as §1

[3] = compound: Cc1nc(Nc2ncc(C(=O)Nc3c(C)cccc3Cl)s2)cc(N2CCN(CCO)CC2)n1 [dasatinib]
Procedure, shortened: as §1

[4] = compound: Cc1ncc(-c2ccnc(Nc3ccc(S(C)(=O)=O)cc3)n2)n1C(C)C
Procedure, shortened: as §1

[5] = compound: Cn1cc(-c2ccc3c(c2)CCN3C(=O)Cc2cccc(C(F)(F)F)c2)c2c(N)ncnc21
Procedure, shortened: as §1

[6] = compound: Cn1cc(CNCC2CCN(c3ncc(C(=O)NO)cn3)CC2)c2ccccc21 [quisinostat]
Procedure, shortened: as §1

[7] = compound: Cn1cncc1[C@@](N)(c1ccc(Cl)cc1)c1ccc2c(c1)c(-c1cccc(Cl)c1)cc(=O)n2C [tipifarnib]
Procedure, shortened: as §1

[8] = compound: NC(=O)Nc1cc(-c2cccc(F)c2)sc1C(=O)N[C@H]1CCCNC1
Procedure, shortened: as §1

[9] = compound: NC(=O)c1cnc(N[C@@H]2CCCC[C@@H]2N)nc1Nc1cccc(-n2nccn2)c1
Procedure, shortened: as §1

[10] = compound: NC1(c2ccc(-c3nc4ccn5c(=O)[nH]nc5c4cc3-c3ccccc3)cc2)CCC1
Procedure, shortened: as §1

Measured: log2 fold change

SSR1 (UniProt P43307)
inactive: [1] 0.027 | [2] -0.053 | [3] -0.012 | [4] -0.055 | [5] 0.002 | [6] -0.079 | [7] -0.072 | [8] 0.004 | [9] -0.022 | [10] 0.001

ST6GALNAC1 (UniProt Q9NSC7)
inactive: [1] 0.086 | [2] -0.03 | [3] 0.026 | [4] -0.097 | [5] -0.046 | [6] 0.015 | [7] -0.123 | [8] -0.032 | [10] -0.074

STAT5A (UniProt P42229)
inactive: [1] -0.004 | [2] -0.024 | [3] -0.04 | [4] 0 | [5] 0.034 | [6] -0.007 | [7] -0.017 | [8] 0.028 | [9] 0.032 | [10] -0.005

ST3GAL4 isoform 4 (UniProt Q11206)
inactive: [1] -0.238 | [2] -0.137 | [3] -0.045 | [4] 0.157 | [5] 0.043 | [6] 0.091 | [7] 0.034 | [8] -0.031 | [10] -0.738

SPN (UniProt P16150)
inactive: [1] 0.007 | [2] 0.032 | [3] 0.007 | [4] 0.005 | [5] 0.008 | [6] -0.009 | [7] -0.028 | [8] 0.004 | [9] 0.007 | [10] -0.003

SPC24 (UniProt Q8NBT2)
inactive: [1] 0.022 | [2] 0.02 | [3] -0.023 | [4] -0.001 | [5] -0.013 | [6] 0 | [7] 0.01 | [8] -0.053 | [9] -0.014 | [10] 0.02

SSBP4 (UniProt Q9BWG4)
inactive: [1] -0.38 | [2] 0.091 | [4] 0.03 | [6] -0.045 | [7] -0.241 | [8] 0.042 | [9] 0.03

STAU1 isoform 3 (UniProt O95793)
inactive: [1] -0.051 | [2] -0.024 | [4] -0.023 | [6] -0.11 | [7] 0.032 | [8] 0.088 | [10] -0.047

ST13P4 (UniProt Q8IZP2)
inactive: [10] -0.011

SPRR2B (UniProt P35325)
inactive: [6] -0.041 | [8] -0.099 | [9] 0.037 | [10] 0.149

SRGN (UniProt P10124)
inactive: [3] 0.003 | [5] -0.062 | [6] -0.026 | [8] 0 | [9] 0 | [10] -0.086

SPRED1 (UniProt Q7Z699)
inactive: [3] 0.027 | [5] -0.02 | [9] 0.013 | [10] 0.039

STAM (UniProt A6NMU3)
inactive: [3] 0.012 | [5] 0 | [6] 0.034 | [8] -0.011 | [9] 0.033 | [10] 0.047

SPICE1 (UniProt Q8N0Z3)
inactive: [1] 0.048 | [2] -0.321 | [4] -0.392 | [7] 0.103 | [10] -0.028

SQOR (UniProt Q9Y6N5)
inactive: [3] 0.237 | [5] -0.081 | [6] 0.095 | [8] 0.017 | [9] -0.013 | [10] 0.041

SRCIN1 (UniProt Q9C0H9)
inactive: [1] 0.29 | [2] 0.096 | [4] 0.177 | [7] 0.082 | [9] -0.026 | [10] -0.223

SSH2 (UniProt Q76I76)
inactive: [3] -0.065 | [5] 0.165 | [6] -0.022 | [8] 0.033 | [9] 0.113 | [10] 0.09

SPTAN1 isoform 3 (UniProt Q13813)
inactive: [6] -0.135 | [8] 0.071

SPRTN (UniProt Q9H040)
inactive: [3] 0.062 | [5] 0.101

SRP14 (UniProt H0YLW0)
inactive: [3] 0.037 | [5] -0.177 | [6] -0.6 | [8] 0.158 | [9] -0.028 | [10] -0.247

SPPL2A (UniProt Q8TCT8)
inactive: [6] -0.21 | [8] 0.046 | [9] 0 | [10] -0.072

SPATA7 (UniProt Q9P0W8)
inactive: [1] -0.333 | [2] -0.049 | [4] 0.066 | [7] 0.099 | [9] 0.017 | [10] -0.115

STAB1 (UniProt Q9NY15)
inactive: [6] -0.522 | [8] -0.368 | [9] 0.075 | [10] -0.024

STAG2 (UniProt Q8N3U4)
inactive: [6] -0.047 | [8] -0.037 | [9] -0.006 | [10] -0.005

SREBF1 isoform 4 (UniProt P36956)
inactive: [3] -0.004 | [5] 0.073 | [6] -0.049 | [8] 0.083 | [9] -0.14 | [10] -0.178

Random excerpt: 2 records from the list
ST13P4 (UniProt Q8IZP2)
inactive: [10] -0.011

SPPL2A (UniProt Q8TCT8)
inactive: [6] -0.21 | [8] 0.046 | [9] 0 | [10] -0.072

(cont.)

SSX2IP (UniProt Q9Y2D8)
inactive: [1] -0.008 | [2] 0.073 | [4] 0.006 | [7] -0.055

SRC isoform 2 (UniProt P12931)
inactive: [5] -0.023 | [9] 0.015 | [10] 0.012

SRRD (UniProt Q9UH36)
inactive: [3] -0.156 | [5] 0.062 | [6] 0.073 | [8] 0.043

SPRED2 (UniProt Q7Z698)
inactive: [1] -0.049 | [2] -0.027 | [4] 0 | [7] 0.089

SSX5 isoform 2 (UniProt O60225)
inactive: [1] 0.008 | [2] -0.018 | [4] 0.064 | [7] 0.061 | [9] 0.026 | [10] 0.15

STARD8 isoform 2 (UniProt Q92502)
inactive: [3] 0.066 | [5] 0.009 | [6] 0.234 | [8] -0.021

SSX1 (UniProt Q16384)
inactive: [3] 0.05 | [5] 0.129 | [6] -0.162 | [8] 0.027 | [10] -0.376

SSBP2 (UniProt P81877)
inactive: [3] 0.184 | [5] -0.122 | [6] 0.021 | [8] -0.097 | [10] -0.103

SPP2 (UniProt Q13103)
inactive: [9] -0.098

ST3GAL2 (UniProt Q16842)
inactive: [3] -0.015 | [5] 0.043 | [6] 0.045 | [8] 0.064 | [9] -0.02 | [10] -0.008

SPRY2 (UniProt O43597)
inactive: [10] 0.076

SPC24 (UniProt K7ESQ2)
inactive: [6] 0.021 | [8] 0.112

SSBP4 (UniProt U3KPY3)
inactive: [1] -0.328 | [2] 0.026 | [4] 0.099 | [7] 0.027

SRGAP2, A0A075B7B5
inactive: [6] 0.072 | [8] -0.086

SPRYD3 (UniProt Q8NCJ5)
inactive: [6] -0.11 | [8] 0.21 | [10] -0.063

ST3GAL1 (UniProt Q11201)
inactive: [3] -0.183 | [5] 0.021 | [6] 0.283 | [8] -0.074
